Values of other authors as cited in patent publication US20010039006A1, “Toxicity typing using embryoid bodies” (priority 1998, published 2001).
For at least one compound, name, drawing or mass did not settle the structure.

How the values were obtained:
[1] = Table 1; cited from earlier work
[2] = Table 2, anti-cancer drugs; cited from earlier work
[3] = Table 1; cited from earlier work; remark: listed apart in the source

SMILES | TOXICITIES LIVER [1] | also measured
Nc1c(CC(=O)O)cccc1C(=O)c1ccc(Br)cc1 [bromofenac] | + | –
[Cd] [cadmium] | + | –
CC[C@H](C)[C@H]1NC(=O)[C@@H](NC(=O)[C@@H](CC(C)C)N(C)C(=O)[C@@H]2CCCN2C(=O)C(C)O)[C@@H](C)OC(=O)[C@H](Cc2ccc(OC)cc2)N(C)C(=O)[C@@H]2CCCN2C(=O)[C@H](CC(C)C)NC(=O)[C@@H](C)C(=O)[C@H](C(C)C)OC(=O)C[C@@H]1O (stereo partly shown) [didemnin B] | – | TOXICITIES GI [2]: +
Oc1c(Cl)cc(Cl)c(Cl)c1Cc1c(O)c(Cl)cc(Cl)c1Cl [hexachloraphene] | – | TOXICITIES CNS [3]: +
